Microarray screen: hit calls

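Compounds were printed on reactive glass slides in duplicate spots, a dye-labelled oligonucleotide was laid over them, and the fluorescence left after washing was read. The data file lists only calls. An earlier report of the laboratory on the PreQ1, TPP and SAM-II riboswitches (doi:10.1038/s41467-019-09493-3) used 1 µM RNA for 2 h and required a mean Z-score above 3 (spot signal-to-noise against the whole library), a score well above that on a control array, and duplicate spots agreeing (coefficient of variation under 100); it then also set aside compounds that hit other targets, which this list keeps. The cut-offs behind this list may differ. These are primary screening calls, not affinities; a compound without a hit may have attached poorly or may still bind in solution.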 A compound is marked hit if it was called a hit and no hit if it was screened but was not. The compounds are a random part of those screened. A dash means that no call is listed here.

Targets, with sequences 5′ to 3′:
PreQ1: PreQ1 riboswitch RNA pseudoknot, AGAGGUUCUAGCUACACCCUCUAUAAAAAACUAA. From B. subtilis. About 170 hits among about 24,000 compounds.
SAM-II: SAM-II riboswitch RNA pseudoknot, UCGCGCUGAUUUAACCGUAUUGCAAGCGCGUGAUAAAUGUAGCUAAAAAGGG. About 200 hits among about 21,000 compounds.
TPP: TPP riboswitch RNA three-way junction, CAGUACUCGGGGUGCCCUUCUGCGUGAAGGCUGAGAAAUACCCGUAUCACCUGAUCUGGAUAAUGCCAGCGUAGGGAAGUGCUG. About 160 hits among about 24,000 compounds.

structure | PreQ1 | SAM-II | TPP
Cc1c(CCN)ccc2c1[nH]c1ccccc12 | no hit | hit | hit
Cn1nc(-c2ccccc2)cc1C(=O)N1C[C@@H]2CCCN[C@@H]2C1 | no hit | no hit | no hit
COc1ccc(-n2ccnc2-c2cn(CC(O)c3ccc(O)cc3)nn2)cc1 (stereo unspecified) | no hit | no hit | no hit
CC(C)Cc1ccc(C(=O)N2CCCC(N3CCC(CO)CC3)C2)cc1 (stereo unspecified) | no hit | no hit | no hit
Cc1ncc2c(c1CNC(=O)CCn1c(C)nc3ccccc31)CCNC2 | no hit | no hit | no hit
O=C(O)c1cc(NCc2ccc(N3CCCC3)cc2)ccc1N1CCOCC1 | no hit | no hit | no hit
CC1(C)CCC(C)(C)c2cc(NC(=O)c3ccc(C(=O)O)cc3)ccc21 | no hit | no hit | no hit
C[C@@H](CO)NC(=O)COc1ccc(-c2cc3cc(Br)ccc3oc2=O)cc1 | no hit | - | no hit
CC1(C)Cc2c(c(N3CCOCC3)nc3sc(C(=O)NCCc4ccccc4)c(N)c23)CO1 | no hit | no hit | no hit
NC(=O)c1cc(-c2cc(N)nc3[nH]ccc23)ccc1F | no hit | no hit | no hit
CCc1ccc(-n2nc(CO)c(C(=O)NCc3ccccn3)n2)cc1 | no hit | - | no hit
Cn1c(=O)c2c(nc(NCCO)n2Cc2ccc(Cl)cc2Cl)n(C)c1=O | no hit | no hit | no hit
CC(=O)c1cccc(Nc2cc(C)nc3nc(-c4ccccc4C)nn23)c1 | no hit | - | no hit
O=S(=O)(c1ccc(F)cc1)N1CCCC(CO)C1 (stereo unspecified) | no hit | - | no hit
CC(=O)c1cc(CN2CCOCC(CO)C2)n(C)c1 (stereo unspecified) | no hit | no hit | no hit
COCCOC(=O)C1=C(N)OC2=C(C(=O)CC(C)(C)C2)C1c1ccc(F)cc1 (stereo unspecified) | no hit | no hit | no hit
C=CCN1C(=O)C2(C(C#N)=C(N)OC(C)=C2C(=O)OCCOC)c2ccccc21 (stereo unspecified) | no hit | no hit | no hit
Cc1ccc(N2CC(C)Cn3c2nc2c3c(=O)n(CCCO)c(=O)n2C)cc1 (stereo unspecified) | no hit | - | no hit
Cc1cc(=O)c2ccccc2n1CC[C@@H](O)c1ccccc1 | no hit | no hit | no hit
Cc1cc2nc[nH]c2c(N)c1C | no hit | no hit | no hit
Cc1cccc2c(-c3c(-c4ccccc4)ncn3CCN)cn(C)c12 | no hit | no hit | no hit
CN1CCCN(C[C@@H]2CN(C(=O)c3ccnc4ccccc34)C[C@@H]2CO)CC1 | no hit | no hit | no hit
O=C1C(Cl)=C(NCCc2ccccc2)C(=O)c2ccccc21 | no hit | no hit | no hit
Cc1ccc(NC(C)(C)C(=O)N[C@H]2CC[C@H]2NC2CCOCC2)cc1 | no hit | no hit | no hit
CCNC(=O)[C@@H]1C[C@@H](N)CN1C(=O)CCn1nnc2ccccc21 | no hit | no hit | no hit
COCCCNc1nc2c(-c3cccc(C(F)(F)F)c3)nnn2c2ccccc12 | no hit | no hit | no hit
CCC1(C)CC(CCNCc2ccc(OC)c(OC)c2)(c2ccc(OC)cc2)CCO1 (stereo unspecified) | no hit | no hit | no hit
COc1ccc(-c2cc(C(F)(F)F)nc(NCc3cccs3)n2)cc1OC | no hit | no hit | no hit
CC(=O)c1ccc(NC(=O)c2sc3nc(C)c(Cl)c(C)c3c2N)cc1 | no hit | no hit | no hit
N#Cc1c(NC(NC(=O)c2cccs2)C(Cl)(Cl)Cl)sc2c1CCCC2 (stereo unspecified) | no hit | no hit | no hit
CCOC(=O)N1CCN(c2c(NCc3cccnc3)c(=O)c2=O)CC1 | no hit | - | no hit
Cc1ccccc1N1CCCN(C(=O)CC2COCCN2)CC1 (stereo unspecified) | no hit | no hit | no hit
CC(C)c1nc(N2C[C@@H]3c4ccccc4OC[C@]3(CO)C2)no1 | no hit | no hit | no hit
CC(=O)c1cnc(Nc2nc(C)c3cc(C)c(C)cc3n2)nc1C | no hit | no hit | no hit
NCc1cn2ncsc2n1 | no hit | no hit | no hit
OCCOCCN1CCCC(c2ccccc2)(c2ccccc2)C1 | no hit | no hit | no hit
COc1cc([C@@H]2c3cc4c(cc3[C@@H](O[C@@H]3O[C@@H]5CO[C@@H](c6cccs6)O[C@@H]5[C@H](O)[C@@H]3O)[C@H]3COC(=O)[C@H]23)OCO4)cc(OC)c1O | no hit | no hit | no hit
CNC(=O)[C@@H]1C[C@H](N)CN1C(=O)CCCc1cccs1 | no hit | no hit | no hit
COc1c(C)cnc(CN(C)C(=O)c2cn(CCN)nn2)c1C | no hit | no hit | no hit
O=S(=O)(CCNc1nc(-c2cccnc2)nc2c1CNC2)N1CCCC1 | no hit | no hit | no hit
Nc1c(C(=O)Nc2cccc(Cl)c2)sc2ncccc12 | no hit | no hit | no hit
Cc1cc(NCCCc2nnc(N)s2)n2nccc2n1 | no hit | no hit | no hit
O=C1NC(=O)C2(CCc3ccccc32)N1 (stereo unspecified) | no hit | no hit | no hit
O=C(NCCc1nc(-c2cccnc2)no1)C1NCCc2[nH]cnc21 (stereo unspecified) | no hit | no hit | no hit
C=CCNc1oc(-c2ccc(C)cc2)nc1S(=O)(=O)c1ccc(C)cc1 | no hit | - | no hit
COC(=O)C1(C)Cc2cc(OC(C)=O)c(OC(C)=O)cc2N1 (stereo unspecified) | no hit | no hit | no hit
CCCc1nc2ccccc2n1CC(O)COc1cc(C)ccc1Cl (stereo unspecified) | no hit | no hit | no hit
CNc1nc(N)c(C(=O)c2ccc(Cl)cc2)s1 | no hit | no hit | no hit
Cc1cc(OCCCCOc2ccc(C#N)cc2)ccc1[N+](=O)[O-] | no hit | no hit | no hit
C=CCc1ccccc1OCC(O)CN1C(=O)NC(C)(C)C1=O (stereo unspecified) | no hit | no hit | no hit
COC(=O)[C@H]1C[C@@H](O)CCN1C(=O)c1cc(C(C)C)oc1C | no hit | no hit | no hit
CC(C)NCc1ccc(-c2ccc(C(C)O)cc2)o1 (stereo unspecified) | no hit | - | no hit
O[C@@H]1CN(c2ncnc3ccsc23)CC[C@H]1c1ccc2c(c1)OCO2 | no hit | no hit | no hit
Cc1cc(C2CCC2)nc(N2Cc3cnn(CCO)c3C2)n1 | no hit | no hit | no hit
Cc1ccc2nc(CNc3ccc(F)cc3)cn2c1 | no hit | no hit | no hit
O=C(NCc1csc2c1CCCC2)c1cnn2cc(CCO)cnc12 | no hit | no hit | no hit
CC1CC(Nc2ccccc2)c2ccccc2N1C(=O)c1cccc(Br)c1 (stereo unspecified) | no hit | no hit | no hit
CCN(CC)C(=O)[C@@H]1C[C@H](N)CN1C(=O)c1c(C)nn2c(C)cc(C)nc12 | no hit | no hit | no hit
CCOC(=O)Cc1ccc(NCCC(=O)c2ccccc2)cc1 | no hit | no hit | no hit
CC(C)CC1(CO)CCCN(c2ccnc(C(=O)NC(C)C)c2)C1 (stereo unspecified) | no hit | no hit | no hit
O=C(O)c1ccccc1CN1CCN(C(=O)c2ccco2)CC(O)C1 (stereo unspecified) | no hit | no hit | no hit
COc1ccc(C2NC(=O)c3c(sc4c3CCN(C)C4)N2)cc1Br (stereo unspecified) | no hit | no hit | no hit
OC1CN(Cc2c(-c3ccccc3)nc3ncccn23)Cc2ccccc21 (stereo unspecified) | no hit | no hit | no hit
CC1=C(c2ccc(C)c(C)c2)S(=O)(=O)N=C1NC1CCCCC1 | no hit | - | no hit
COc1ccc(C(C)(C)C)cc1NC(=O)NCCc1nc(N)cc(O)n1 | no hit | no hit | no hit
COc1c(N)cc(C(=O)O)cc1Br | no hit | no hit | no hit
Cc1sc2nc(CCNC3CSCCSC3)[nH]c(=O)c2c1C | no hit | no hit | no hit
Cc1oc2ncnc(NCCCO)c2c1C | no hit | no hit | no hit
Cc1cn(CC(=O)N2CCOCC(O)C2)c(=O)[nH]c1=O (stereo unspecified) | no hit | no hit | no hit
c1ccc2c(CNCCc3c[nH]c4ccccc34)cccc2c1 | no hit | no hit | no hit
O=C(CN1CCNCC1)NC1CCCC1 | no hit | no hit | no hit
O=C(CCC(=O)N1CCCC(O)(CO)C1)c1ccccc1 (stereo unspecified) | no hit | no hit | no hit

Source: the ROBIN nucleic acid binder screens (doi:10.1002/anie.202211358).